These are literature values, as cited in paper PMC11885506, “Evaluation of a non-animal toolbox informed by adverse outcome pathways for human inhalation safety” (Frontiers in Toxicology, 2025).

The conditions of the data set: human, therapeutic dose, single dose of 400 mg via oral route; ref Andreasen et al. (1981); cited from earlier work.

Where a name gives a salt, the structure may show the parent alone.

`CCCCc1oc2ccccc2c1C(=O)c1cc(I)c(OCCN(CC)CC)c(I)c1` [Amiodarone, Amiodarone hydrochloride]: the Plasma conc result is “Plasma conc: 2 μM”.
